Changes are numbered by the printed parent chain. Names and notes keep the numbering of the source. Results are given in words; binding and its absence hold for the method and conditions named. For some assays here: In cells and extracts the contact can be indirect. Some results given as binding are weak or reduced against the parent protein; the word gives no strength. Where a sequence is shown, tags or fusion partners need not be part of it. Blank lines part the entries; values can stand above or below the binder they belong to.
Columns and labels:
GST–Arl8b [1] = target: GST–Arl8b (UniProt Q9NVJ2); assay: pull-down; GST–Arl8b as bait incubated with transfected HEK293T cell lysates; MG132 (2 µM, 12 hours) to restore expression of Vps41-NΔ450; only the target purified
GST–Arl8b [2] = target: GST–Arl8b (UniProt Q9NVJ2); assay: pull-down; GST proteins on glutathione-conjugated beads incubated with transfected HeLa cell lysates; immunoblot; only the target purified
[3] = target: T1, SKIP (yeast two-hybrid fusion) (UniProt Q8IWE5); assay: two-hybrid; S. cerevisiae AH109 co-transformants (pGBKT7 and pGADT7), grown at 30°C, replated on non-selection (+HIS) and selection (−HIS) plates
T1 sequence: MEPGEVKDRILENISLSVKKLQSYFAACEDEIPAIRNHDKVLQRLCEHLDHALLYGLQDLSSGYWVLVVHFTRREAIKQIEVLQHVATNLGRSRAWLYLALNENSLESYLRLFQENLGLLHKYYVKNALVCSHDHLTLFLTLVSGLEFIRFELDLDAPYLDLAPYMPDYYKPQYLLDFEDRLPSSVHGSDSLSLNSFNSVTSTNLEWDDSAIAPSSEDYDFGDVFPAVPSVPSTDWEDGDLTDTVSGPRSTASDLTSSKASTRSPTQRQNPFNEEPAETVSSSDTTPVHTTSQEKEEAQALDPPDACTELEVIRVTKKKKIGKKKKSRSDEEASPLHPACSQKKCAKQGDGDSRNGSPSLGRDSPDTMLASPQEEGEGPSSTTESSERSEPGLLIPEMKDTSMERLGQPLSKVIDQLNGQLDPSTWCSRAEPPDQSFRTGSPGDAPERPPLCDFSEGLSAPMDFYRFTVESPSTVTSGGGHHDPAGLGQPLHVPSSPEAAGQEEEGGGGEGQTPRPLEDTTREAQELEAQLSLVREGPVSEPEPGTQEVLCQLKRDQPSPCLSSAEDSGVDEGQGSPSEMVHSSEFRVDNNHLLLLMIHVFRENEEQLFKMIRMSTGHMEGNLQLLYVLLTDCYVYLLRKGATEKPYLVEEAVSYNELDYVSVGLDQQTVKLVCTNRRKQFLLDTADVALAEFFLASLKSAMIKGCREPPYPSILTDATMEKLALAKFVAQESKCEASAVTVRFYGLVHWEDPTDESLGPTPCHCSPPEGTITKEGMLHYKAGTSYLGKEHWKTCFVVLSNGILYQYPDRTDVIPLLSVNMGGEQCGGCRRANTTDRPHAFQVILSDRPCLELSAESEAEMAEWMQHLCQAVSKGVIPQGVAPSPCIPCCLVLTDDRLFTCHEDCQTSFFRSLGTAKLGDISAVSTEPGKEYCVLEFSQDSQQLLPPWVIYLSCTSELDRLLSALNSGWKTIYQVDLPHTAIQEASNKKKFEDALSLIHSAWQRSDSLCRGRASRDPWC

The chains behind the UniProt entries cited, without tags or fusion partners.
UniProt Q9NVJ2: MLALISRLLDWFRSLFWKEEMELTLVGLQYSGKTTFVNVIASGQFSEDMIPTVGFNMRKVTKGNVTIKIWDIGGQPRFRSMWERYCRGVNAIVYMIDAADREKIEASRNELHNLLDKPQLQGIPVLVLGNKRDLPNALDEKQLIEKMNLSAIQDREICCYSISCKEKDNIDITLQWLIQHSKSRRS

[4] = target: Arl8b (yeast two-hybrid fusion, Arl8b-pGBKT7) (UniProt Q9NVJ2); assay: as above

binding (GST–Arl8b [1]): no binding
B1: HA-Vps41-NΔ450 (domain or fragment, UniProt P49754 451-854)
chain: RGDPVLKPLIYEMILHEFLESDYEGFATLIREWPGDLYNNSVIVQAVRDHLKKDSQNKTLLKTLAELYTYDKNYGNALEIYLTLRHKDVFQLIHKHNLFSSIKDKIVLLMDFDSEKAVDMLLDNEDKISIKKVVEELEDRPELQHVYLHKLFKRDHHKGQRYHEKQISLYAEYDRPNLLPFLRDSTHCPLEKALEICQQRNFVEETVYLLSRMGNSRSALKMIMEELHDVDKAIEFAKEQDDGELWEDLILYSIDKPPFITGLLNNIGTHVDPILLIHRIKEGMEIPNLRDSLVKILQDYNLQILLREGCKKILVADSLSLLKKMHRTQMKGVLVDEENICESCLSPILPSDAAKPFSVVVFHCRHMFHKECLPMPSMNSAAQFCNICSAKNRGPGSAILEMKK

binding (GST–Arl8b [1]): binds
B2: Vps41-L532X (domain or fragment, UniProt P49754 1-531)
chain: MAEAEEQETGSLEESTDESEEEESEEEPKLKYERLSNGVTEILQKDAASCMTVHDKFLALGTHYGKVYLLDVQGNITQKFDVSPVKINQISLDESGEHMGVCSEDGKVQVFGLYSGEEFHETFDCPIKIIAVHPHFVRSSCKQFVTGGKKLLLFERSWMNRWKSAVLHEGEGNIRSVKWRGHLIAWANNMGVKIFDIISKQRITNVPRDDISLRPDMYPCSLCWKDNVTLIIGWGTSVKVCSVKERHASEMRDLPSRYVEIVSQFETEFYISGLAPLCDQLVVLSYVKEISEKTEREYCARPRLDIIQPLSETCEEISSDALTVRGFQENECRDYHLEYSEGESLFYIVSPRDVVVAKERDQDDHIDWLLEKKKYEEALMAAEISQKNIKRHKILDIGLAYINHLVERGDYDIAARKCQKILGKNAALWEYEVYKFKEIGQLKAISPYLPRGDPVLKPLIYEMILHEFLESDYEGFATLIREWPGDLYNNSVIVQAVRDHLKKDSQNKTLLKTLAELYTYDKNYGNALEIY

binding (GST–Arl8b [2]): no binding
B3: HA–hVps39 (HeLa) (protein, UniProt Q96JC1 1-886)
chain: MHDAFEPVPILEKLPLQIDCLAAWEEWLLVGTKQGHLLLYRIRKDVVPADVASPESGSCNRFEVTLEKSNKNFSKKIQQIHVVSQFKILVSLLENNIYVHDLLTFQQITTVSKAKGASLFTCDLQHTETGEEVLRMCVAVKKKLQLYFWKDREFHELQGDFSVPDVPKSMAWCENSICVGFKRDYYLIRVDGKGSIKELFPTGKQLEPLVAPLADGKVAVGQDDLTVVLNEEGICTQKCALNWTDIPVAMEHQPPYIIAVLPRYVEIRTFEPRLLVQSIELQRPRFITSGGSNIIYVASNHFVWRLIPVPMATQIQQLLQDKQFELALQLAEMKDDSDSEKQQQIHHIKNLYAFNLFCQKRFDESMQVFAKLGTDPTHVMGLYPDLLPTDYRKQLQYPNPLPVLSGAELEKAHLALIDYLTQKRSQLVKKLNDSDHQSSTSPLMEGTPTIKSKKKLLQIIDTTLLKCYLHTNVALVAPLLRLENNHCHIEESEHVLKKAHKYSELIILYEKKGLHEKALQVLVDQSKKANSPLKGHERTVQYLQHLGTENLHLIFSYSVWVLRDFPEDGLKIFTEDLPEVESLPRDRVLGFLIENFKGLAIPYLEHIIHVWEETGSRFHNCLIQLYCEKVQGLMKEYLLSFPAGKTPVPAGEEEGELGEYRQKLLMFLEISSYYDPGRLICDFPFDGLLEERALLLGRMGKHEQALFIYVHILKDTRMAEEYCHKHYDRNKDGNKDVYLSLLRMYLSPPSIHCLGPIKLELLEPKANLQAALQVLELHHSKLDTTKALNLLPANTQINDIRIFLEKVLEENAQKKRFNQVLKNLLHAEFLRVQEERILHQQVKCIITEEKVCMVCKKKIGNSAFARYPNGVVVHYFCSKEVNPADT

binding (GST–Arl8b [1]): binds
B4: Vps41-L713X (domain or fragment, UniProt P49754 1-712)
chain: MAEAEEQETGSLEESTDESEEEESEEEPKLKYERLSNGVTEILQKDAASCMTVHDKFLALGTHYGKVYLLDVQGNITQKFDVSPVKINQISLDESGEHMGVCSEDGKVQVFGLYSGEEFHETFDCPIKIIAVHPHFVRSSCKQFVTGGKKLLLFERSWMNRWKSAVLHEGEGNIRSVKWRGHLIAWANNMGVKIFDIISKQRITNVPRDDISLRPDMYPCSLCWKDNVTLIIGWGTSVKVCSVKERHASEMRDLPSRYVEIVSQFETEFYISGLAPLCDQLVVLSYVKEISEKTEREYCARPRLDIIQPLSETCEEISSDALTVRGFQENECRDYHLEYSEGESLFYIVSPRDVVVAKERDQDDHIDWLLEKKKYEEALMAAEISQKNIKRHKILDIGLAYINHLVERGDYDIAARKCQKILGKNAALWEYEVYKFKEIGQLKAISPYLPRGDPVLKPLIYEMILHEFLESDYEGFATLIREWPGDLYNNSVIVQAVRDHLKKDSQNKTLLKTLAELYTYDKNYGNALEIYLTLRHKDVFQLIHKHNLFSSIKDKIVLLMDFDSEKAVDMLLDNEDKISIKKVVEELEDRPELQHVYLHKLFKRDHHKGQRYHEKQISLYAEYDRPNLLPFLRDSTHCPLEKALEICQQRNFVEETVYLLSRMGNSRSALKMIMEELHDVDKAIEFAKEQDDGELWEDLILYSIDKPPFITG

binding [3]: no binding | binding [4]: binds
B5: hVps41 (yeast two-hybrid fusion) (protein, UniProt P49754 1-854)
chain: MAEAEEQETGSLEESTDESEEEESEEEPKLKYERLSNGVTEILQKDAASCMTVHDKFLALGTHYGKVYLLDVQGNITQKFDVSPVKINQISLDESGEHMGVCSEDGKVQVFGLYSGEEFHETFDCPIKIIAVHPHFVRSSCKQFVTGGKKLLLFERSWMNRWKSAVLHEGEGNIRSVKWRGHLIAWANNMGVKIFDIISKQRITNVPRDDISLRPDMYPCSLCWKDNVTLIIGWGTSVKVCSVKERHASEMRDLPSRYVEIVSQFETEFYISGLAPLCDQLVVLSYVKEISEKTEREYCARPRLDIIQPLSETCEEISSDALTVRGFQENECRDYHLEYSEGESLFYIVSPRDVVVAKERDQDDHIDWLLEKKKYEEALMAAEISQKNIKRHKILDIGLAYINHLVERGDYDIAARKCQKILGKNAALWEYEVYKFKEIGQLKAISPYLPRGDPVLKPLIYEMILHEFLESDYEGFATLIREWPGDLYNNSVIVQAVRDHLKKDSQNKTLLKTLAELYTYDKNYGNALEIYLTLRHKDVFQLIHKHNLFSSIKDKIVLLMDFDSEKAVDMLLDNEDKISIKKVVEELEDRPELQHVYLHKLFKRDHHKGQRYHEKQISLYAEYDRPNLLPFLRDSTHCPLEKALEICQQRNFVEETVYLLSRMGNSRSALKMIMEELHDVDKAIEFAKEQDDGELWEDLILYSIDKPPFITGLLNNIGTHVDPILLIHRIKEGMEIPNLRDSLVKILQDYNLQILLREGCKKILVADSLSLLKKMHRTQMKGVLVDEENICESCLSPILPSDAAKPFSVVVFHCRHMFHKECLPMPSMNSAAQFCNICSAKNRGPGSAILEMKK

binding (GST–Arl8b [1]): binds
B6: HA–Vps41 (HEK293T) (protein, UniProt P49754 1-854)
chain: B5 chain

binding (GST–Arl8b [2]): binds
B7: HA–Vps41-A187T (protein, UniProt P49754 1-854)
chain: B5 chain with A187T

Source: article PMC4432227
